From patent US5908832A, “Peptide analog” (University of Houston - Clearlake, priority 1991, dated 1999)
At least one peptide structure holds a part that was inferred or is arguable (an end, a ring closure or a residue).

Tested on: morphine-dependent rats
Assay: Naloxone-precipitated abstinence in morphine-dependent rats
Type: in vivo, Sprague-Dawley rats

SMILES: CC(C)C[C@H](NC(=O)[C@H](Cc1ccccc1)NC(=O)CCc1ccc(O)cc1)C(=O)N[C@@H](Cc1ccccc1)C(=O)N[C@@H](CCC(N)=O)C(=O)N1CCC[C@H]1C(=O)N[C@@H](CCC(N)=O)C(=O)N[C@@H](CCCNC(=N)N)C(=O)N[C@@H](Cc1ccccc1)C(N)=O [daY9Fa]
- abstinence syndrome after naloxone challenge vs saline pretreatment (one-way ANOVA) (600 ng i.c.v. pretreatment, 10 μg naloxone HCl i.c.v., Example III): no significant differences among groups
- abstinence signs after peptide injection compared with the other two groups (Tukey's HSD) (morphine-dependent rats, 600 ng i.c.v., before naloxone): significantly more abstinence signs
- abstinence signs following the peptide injection itself (total frequency, M±SEM) (morphine-dependent rats, 600 ng i.c.v., observed 14 minutes from onset of injection, before naloxone): 10.67±2.60
